# Results published in patent US20220235109A1.
# Chains of the proteins cited; added tags and fusions are not shown. Residues count along the entry.
# UniProt Q15116, residues 25-288: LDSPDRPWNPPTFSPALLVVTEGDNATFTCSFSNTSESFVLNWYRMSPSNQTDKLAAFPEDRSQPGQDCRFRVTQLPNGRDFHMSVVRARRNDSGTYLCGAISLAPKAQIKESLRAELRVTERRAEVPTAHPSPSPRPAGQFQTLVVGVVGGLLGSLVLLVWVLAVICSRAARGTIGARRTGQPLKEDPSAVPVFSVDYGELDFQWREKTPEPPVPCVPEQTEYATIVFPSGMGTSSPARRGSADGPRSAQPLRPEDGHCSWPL
# These are yes or no findings as the source states them, for the method shown. Some binding calls cover weakened binding; strength is not graded here.
# B1: P-0795 (antibody, human IgG1, kappa, V domains shown)
# VH: EVQLVESGGGLVKPGGSLRLSCAASGFTFSSYDMSWVRQAPGKGLEWVATISGGGSYTYYPDSVKGRFTISRDNAKNSLYLQMNSLRAEDTAVYYCASPDSSGVAYWGQGTLVTVSS
# VL: DIVMTQSPLSLPVTPGEPASITCKASQDVETVVAWYLQKPGQSPRLLIYWASTRHTGVPDRFSGSGSGTDFTLKISRVEAEDVGVYYCQQYSRYPWTFGQGTKLEIKR
# Biological target: PD1 expressed on cell surface (UniProt Q15116)
# Experiment: FACS on PD-1-expressing cells
binder,measurement,value
B1,binding,binds
